## Screening data

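Vaccinia-infected cells with a two-color viral stage reporter; Venus fluorescence read on a plate reader; the cell line is not named here; timing not stated here. The test concentration is not given here. Percent change in Venus reporter signal; lower (more negative) values mean stronger inhibition of that viral stage.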

Values are in %. How 0% and 100% were set is not given here. Common to all entries: measured here: Venus reporter, other viral stage. This is a side read-out of the assay, for part of the compounds, not drawn at random.

| compound | activity change (Venus) (%) |
|---|---|
| `C[C@H](CO)N1C[C@H](C)[C@H](CN(C)CC2CCCCC2)Oc2ccc(NS(=O)(=O)c3ccc(Cl)cc3)cc2CC1=O` | -69.34 |
| `C[C@H](CO)N1C[C@H](C)[C@@H](CN(C)S(=O)(=O)c2ccc(F)cc2)Oc2ncc(C#CC3CCCCC3)cc2C1=O` | -54.59 |
| `C[C@H]1CCCCO[C@@H](CN(C)C(=O)c2ccccc2)[C@@H](C)CN([C@@H](C)CO)C(=O)c2cc(NS(=O)(=O)c3ccc(Cl)cc3)ccc2O1` | -54.47 |
| `C[C@H](CO)N1C[C@H](C)[C@@H](CN(C)Cc2ccc(C(F)(F)F)cc2)Oc2ccc(NC(=O)Cc3ccccc3)cc2CC1=O` | -40.83 |
| `COc1cc(CN2C[C@@H]3N[C@H](C2)C3c2ccc(-c3ccccc3C)cc2)cc(OC)c1` (some centres undefined) | -34.93 |
| `COc1ccc(CN(C)C[C@@H]2OCCCC[C@H](C)Oc3ccc(NC(=O)C4CCCCC4)cc3C(=O)N([C@@H](C)CO)C[C@H]2C)cc1` | -43.97 |
| `C[C@@H]1CN([C@@H](C)CO)C(=O)c2cc(C#CCC3CCCC3)cnc2O[C@H]1CN(C)Cc1ccccn1` | -21.95 |
| `C[C@@H]1CCCCO[C@H](CN(C)C(=O)NC2CCCCC2)[C@H](C)CN([C@H](C)CO)C(=O)c2cc(NS(=O)(=O)c3ccc(F)cc3)ccc2O1` | -71.38 |
| `CC(C)CC#Cc1ccc2c(c1)O[C@H](CN(C)Cc1ccc3c(c1)OCO3)[C@@H](C)CN([C@@H](C)CO)S2(=O)=O` | -42.67 |
| `O=S(=O)(c1ccc(-c2ccccc2)cc1)N1C[C@@H]2N[C@H](C1)[C@@H]2c1ccc(-c2cccnc2)cc1` | -63.28 |
| `C[C@H]1CN([C@@H](C)CO)C(=O)Cc2cc(NC(=O)C3CCCCC3)ccc2O[C@@H]1CN(C)CC1CCCCC1` | -35.23 |
| `C[C@H]1CCCCO[C@H](CN(C)CC2CCCCC2)[C@@H](C)CN([C@@H](C)CO)C(=O)c2cc(NS(=O)(=O)c3ccc(F)cc3)ccc2O1` | -37.81 |
| `C[C@@H]1CCCCO[C@@H](CN(C)S(=O)(=O)c2ccc(Cl)cc2)[C@H](C)CN([C@@H](C)CO)C(=O)c2cc(NC(=O)Cc3ccccc3)ccc2O1` | -30.41 |
| `Cc1ccc(S(=O)(=O)Nc2ccc3c(c2)C(=O)N([C@@H](C)CO)C[C@H](C)[C@H](CN(C)C(=O)C2CCCCC2)OCCCC[C@@H](C)O3)cc1` | -30.77 |
| `Cc1ccc(S(=O)(=O)Nc2cccc3c2O[C@H](CN(C)Cc2ccc(Oc4ccccc4)cc2)[C@@H](C)CN([C@H](C)CO)C3=O)cc1` | -28.2 |
| `C[C@@H]1CN([C@@H](C)CO)C(=O)CCCn2nncc2CO[C@@H]1CN(C)Cc1ccc(-c2ccccc2)cc1` | -44.25 |
| `Cc1noc(C)c1S(=O)(=O)Nc1cccc2c1O[C@@H](CN(C)Cc1ccc(Oc3ccccc3)cc1)[C@@H](C)CN([C@H](C)CO)C2=O` | -29.13 |
| `N#Cc1ccc(-c2ccc(C3[C@@H]4CN(C(=O)Nc5ccc(C(F)(F)F)cc5)C[C@H]3N4)cc2)cc1` (some centres undefined) | -95.66 |
| `C[C@@H]1CN([C@H](C)CO)C(=O)c2cc(NC(=O)Cc3ccccc3)ccc2O[C@@H]1CN(C)Cc1ccc(Oc2ccccc2)cc1` | -37.25 |
| `COc1ccccc1NC(=O)N1CCCCN2[C@H](CO)[C@H](c3ccc(C#CC4CC4)cc3)[C@@H]2C1` | -33.78 |
| `COc1ccc(C#Cc2ccc3c(c2)O[C@@H](CN(C)C)[C@H](C)CN([C@@H](C)CO)S3(=O)=O)cc1` | -32.1 |
| `CN1CCCCN2[C@H](C1)[C@H](c1ccc(C#Cc3ccccc3F)cc1)[C@@H]2CO` | -56.82 |
| `O=C(c1cccc(F)c1)N1CC(=O)N2[C@H](CO)[C@@H](c3ccc(C#Cc4ccc(F)cc4)cc3)[C@H]2C1` | -38.03 |
| `CNC[C@@H]1Oc2cc(C#CCC3CCCC3)ccc2S(=O)(=O)N([C@@H](C)CO)C[C@H]1C` | -30.93 |
| `C[C@H]1CN([C@@H](C)CO)C(=O)c2cccc(NC(=O)Nc3cccc4ccccc34)c2O[C@H]1CN(C)C(=O)Nc1ccc(C(F)(F)F)cc1` | -39.2 |
| `C[C@@H]1CN([C@@H](C)CO)C(=O)c2cc(NC(=O)CCC(F)(F)F)ccc2O[C@@H](C)CCCCO[C@@H]1CN(C)Cc1ccc(C(F)(F)F)cc1` | -35.95 |
| `C[C@H]1CN([C@@H](C)CO)C(=O)c2c(c3ccccc3n2C)-c2ccccc2CO[C@H]1CN(C)C(=O)Nc1ccnc(N2CCOCC2)c1` | -40.13 |
| `COc1ccc(NC(=O)N(C)C[C@H]2OCCCC[C@H](C)Oc3ccc(NS(=O)(=O)c4cccs4)cc3C(=O)N([C@@H](C)CO)C[C@H]2C)cc1` | -49.11 |
| `Cc1ccc(S(=O)(=O)N2C[C@@H]3N[C@H](C2)C3c2ccc(-c3ccncc3)cc2)cc1` (some centres undefined) | -37.29 |
| `COc1cccc(-c2ccc(C3[C@@H]4CN(C(=O)C5CCC5)C[C@H]3N4)cc2)c1` (some centres undefined) | -76.53 |
| `C[C@H]1CN([C@@H](C)CO)S(=O)(=O)c2ccc(C3=CCCCC3)cc2O[C@H]1CN(C)S(=O)(=O)c1ccc(F)cc1` | -36.02 |
| `COc1cccc(S(=O)(=O)N(C)C[C@@H]2Oc3ncc(-c4cc5ccccc5o4)cc3C(=O)N([C@H](C)CO)C[C@@H]2C)c1` | -57.78 |
| `C[C@H]1CN([C@@H](C)CO)S(=O)(=O)c2ccc(C3=CCCCC3)cc2O[C@H]1CN(C)C(=O)c1ccccc1` | -35.73 |
| `C[C@@H]1CCCCO[C@@H](CN(C)C(=O)CCC(F)(F)F)[C@@H](C)CN([C@@H](C)CO)C(=O)c2cc(NS(=O)(=O)c3ccc(Cl)cc3)ccc2O1` | -32.67 |
| `CC(C)C#Cc1ccc2c(c1)O[C@@H](CN(C)C(=O)c1cccc(F)c1)[C@H](C)CN([C@@H](C)CO)S2(=O)=O` | -52.3 |
| `COc1cccc(-c2ccc3c(c2)O[C@@H](CN(C)Cc2ccncc2)[C@H](C)CN([C@H](C)CO)S3(=O)=O)c1` | -44.34 |
| `C[C@H](CO)N1C[C@H](C)[C@H](CN(C)C(=O)Nc2ccccc2)Oc2ncc(C#CC3CCCCC3)cc2C1=O` | -53.06 |
| `COc1ccc2c3c([nH]c2c1)[C@@H](CO)N(C(=O)Nc1ccc(F)cc1)CC31CN(C(=O)c2ccccc2F)C1` | -62.77 |
| `COc1ccc(S(=O)(=O)N(C)C[C@H]2Oc3cc(C#CC4CCCC4)ccc3S(=O)(=O)N([C@@H](C)CO)C[C@H]2C)cc1` | -63.97 |
| `C[C@H](CO)N1C[C@H](C)[C@@H](CN(C)S(=O)(=O)c2ccccc2F)Oc2ncc(/C=C/c3ccccc3)cc2C1=O` | -15.52 |
| `CC(C)C#Cc1ccc2c(c1)O[C@H](CN(C)C(=O)c1cccc(F)c1)[C@H](C)CN([C@H](C)CO)S2(=O)=O` | -32.47 |
| `CC(C)CC#Cc1cnc2c(c1)C(=O)N([C@@H](C)CO)C[C@@H](C)[C@H](CN(C)Cc1ccccc1)O2` | -36.45 |
| `COc1ccccc1C#Cc1cnc2c(c1)C(=O)N([C@@H](C)CO)C[C@@H](C)[C@@H](CN(C)C(=O)c1ccc3c(c1)OCO3)O2` | -25 |
| `O=C(NCC[C@H]1CC[C@H](NC(=O)C2CCC2)[C@@H](CO)O1)c1cnccn1` | -38.88 |
| `CN1C(=O)c2cc(NS(=O)(=O)c3ccc(Cl)cc3)ccc2OC[C@@H]2O[C@H](CC(=O)N3CCc4ccccc4C3)CC[C@@H]21` | -34.23 |
| `COc1ccccc1NC(=O)N1CCCCN2[C@H](CO)[C@H](c3ccc(-c4ccc(C)cc4)cc3)[C@H]2C1` | -79.89 |
| `CCCN(C)C[C@@H]1Oc2ncc(C#CCC(C)C)cc2C(=O)N([C@@H](C)CO)C[C@H]1C` | -36.39 |
| `O=C1CN(S(=O)(=O)Cc2ccccc2)C[C@@H]2[C@H](c3ccc(C#Cc4ccccc4)cc3)[C@H](CO)N12` | -50.02 |
| `COc1cccc(C#Cc2ccc3c(c2)O[C@H](CN(C)C)[C@@H](C)CN([C@H](C)CO)S3(=O)=O)c1` | -15.79 |
| `CC(C)NC(=O)Nc1cccc2c1O[C@@H](CN(C)C(=O)Nc1cccc3ccccc13)[C@@H](C)CN([C@@H](C)CO)C2=O` | -35.83 |
| `O=C(CC1CC1)N1CC(=O)N2[C@H](C1)[C@H](c1ccc(C#Cc3ccccc3)cc1)[C@@H]2CO` | -52.07 |
| `C[C@@H]1CN([C@@H](C)CO)C(=O)Cc2cc(NC(=O)Nc3ccc4c(c3)OCO4)ccc2O[C@@H]1CN(C)Cc1ccc(Cl)c(Cl)c1` | -39.77 |

4 of the entries, repeated:

compound	activity change (Venus) (%)
O=C(c1cccc(F)c1)N1CC(=O)N2[C@H](CO)[C@@H](c3ccc(C#Cc4ccc(F)cc4)cc3)[C@H]2C1	-38.03
C[C@@H]1CCCCO[C@H](CN(C)C(=O)NC2CCCCC2)[C@H](C)CN([C@H](C)CO)C(=O)c2cc(NS(=O)(=O)c3ccc(F)cc3)ccc2O1	-71.38
CNC[C@@H]1Oc2cc(C#CCC3CCCC3)ccc2S(=O)(=O)N([C@@H](C)CO)C[C@H]1C	-30.93
CC(C)C#Cc1ccc2c(c1)O[C@H](CN(C)C(=O)c1cccc(F)c1)[C@H](C)CN([C@H](C)CO)S2(=O)=O	-32.47

Data taken from PubChem BioAssay AID1053133, deposited by Broad Institute (2014).